In article PMC6726247:
Results are given in words; binding and its absence hold for the method and conditions named. Binding seen in cells or lysates may run through a third protein. These calls come from enrichment with a bait or labelling near it, and not all partners need be listed.

Protein sequences, listed by entry. Tags and fused reporters are not part of them.
UniProt Q9CWH6: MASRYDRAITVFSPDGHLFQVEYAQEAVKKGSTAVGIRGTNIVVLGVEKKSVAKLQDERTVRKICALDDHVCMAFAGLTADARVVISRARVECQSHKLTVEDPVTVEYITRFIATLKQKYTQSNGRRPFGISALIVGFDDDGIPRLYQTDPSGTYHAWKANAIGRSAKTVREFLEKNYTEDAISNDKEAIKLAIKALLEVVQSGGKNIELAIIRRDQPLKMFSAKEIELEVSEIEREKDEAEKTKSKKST

Molecular target: PSMA8 (testis-specific proteasomal subunit α4s), endogenous (mouse (endogenous in testis)) (UniProt Q9CWH6)
Assay: affinity purification with mass spectrometry; anti-PSMA8 antibodies R1 and R2 (detect PSMA7/8) bound to sepharose beads; 20 mg wild-type mouse testis extract in 50mM Tris HCl (pH8), 500mM NaCl, 1mM EDTA, 1% tritonX-100, o/n; buffer lacking ATP and glycerol; eluted in 100 mM glycine pH3

binding | Binder
binds | CCT2 (protein, UniProt P80314 1-535) MASLSLAPVNIFKAGADEERAETARLSSFIGAIAIGDLVKSTLGPKGMDKILLSSGRDAALMVTNDGATILKNIGVDNPAAKVLVDMSRVQDDEVGDGTTSVTVLAAELLREAESLIAKKIHPQTIISGWREATKAAREALLSSAVDHGSDEARFWQDLMNIAGTTLSSKLLTHHKDHFTKLAVEAVLRLKGSGNLEAIHVIKKLGGSLADSYLDEGFLLDKKIGVNQPKRIENAKILIANTGMDTDKIKIFGSRVRVDSTAKVAEIEHAEKEKMKEKVERILKHGINCFINRQLIYNYPEQLFGAAGVMAIEHADFAGVERLALVTGGEIASTFDHPELVKLGSCKLIEEVMIGEDKLIHFSGVALGEACTIVLRGATQQILDEAERSLHDALCVLAQTVKDPRTVYGGGCSEMLMAHAVTQLANRTPGKEAVAMESFAKALRMLPTIIADNAGYDSADLVAQLRAAHSEGHITAGLDMKEGTIGDMAVLGITESFQVKRQVLLSAAEAAEVILRVDNIIKAAPRKRVPDHHPC
binds | SYCP1 (transverse filament protein), endogenous (protein, UniProt Q62209 1-993) MEKQKPFTLFVPPRLSSSQVSAVKPQTAGGDSNYFKTANKCTEGDFGVPFTMSSRENIDKDPAFQKLSILPMLEQVANSGSCHYQEGVNDSDFENSEPMSRLYSKLYKEAEKIKKWKVSIESELKQKENKLQENRKIIEAQRKAIQELQFENEKVSLKLEEEIQENKDLIKENNATIHWCNLLKETCARSAEKTNKYEYEREETRQVYVDLNSNIEKMILAFEELRVQAENARLEMHFKLKEDHEKIQHLEEEYQKEVNNKENQVSELLIQSAEKENKMKDLTFLLEESRDKANQLEEKTKLQDENLKELSEKKDHLTSELEDIKMSMQRSMSTQKALEEDLQIATKTISQLTEVKEAQMEELNKAKTTHSFVVTELKATTCTLEELLRTEQQRLEKNEDQLKLITVELQKKSNELEEMTKFKNNKEVELEELKNILAEDQKLLDEKKQVEKLAEELQEKEQELTFLLETREKEVHDLQEQVTVTKTSEQHYLKQVEEMKTELEKEKLKNTELTASCDMLLLENKKFVQEASDMALELKKHQEDIINCKKQEERLLKQIENLEEKEMHLRDELESVRKEFIQQGDEVKCKLDKSEENARSIECEVLKKEKQMKILESKCNNLKKQVENKSKNIEELHQENKTLKKKSSAEIKQLNAYEIKVSKLELELESTKQRFEEMTNNYQKEIENKKISEGKLLGEVEKAKATVDEAVKLQKEIDLRCQHKIAEMVALMEKHKHQYDKIVEERDSELGLYKNREQEQSSAKIALETELSNIRNELVSLKKQLEIEKEEKEKLKMAKENTAILKDKKDKKIQASLLESPEATSWKFDSKTTPSQNISRLSSSMDSGKSKDNRDNLRASAKSILPTTVTKEYTVKTPTKKSIYQRENKYIPTGGSNKKRKTAFEFDVNSDSSETADLLSLVSEEDVSNRLYDNNPPDSHLLVKTPKQTPLSLSTPASFMKFGSLKKMREDRWTTIAKIDRKRRLKEAEKLFS
binds | TRIP13 (AAA-ATPase), endogenous (protein, UniProt Q3UA06 1-432) MDEAVGDLKQALPCVAESPAVHVEVLQRSGSTAKKEDIKSSVYRLLNRHNIVFGDYVWTEFDDPFLSRNVQSVSIVDTELKAKDPQPIDLSACTIALHIFQLNEEGPSSENLDEETENIIAASHWVLPAAEFHGLWDSLVYDVEVKSHLLDYVMTTVLFSDKNVDSNLITWNRVVLLHGPPGTGKTSLCKALAQKLTIRLSSRYRYGQLIEINSHSLFSKWFSESGKLVTKMFQKIQDLIDDKEALVFVLIDEVESLTAARNACRAGAEPSDAIRVVNAVLTQIDQIKRHSNVVILTTSNITEKIDVAFVDRADIKQYIGPPSAAAIFKIYLSCLEELMKCQIIYPRQQLLTLRELEMIGFIENNVSKLSLLLSEISRKSEGLSGRVLRKLPFLAHALYIQAPSVTIEGFLQALSLAVDKQFEEKKKLSAYV
